Experimental data from article PMC11663349.
Results are given in words; binding and its absence hold for the method and conditions named. In cells and extracts the contact can be indirect. Here binding means that the protein was enriched with, or labelled near, the bait; the list need not be complete.

The chains behind the UniProt entries cited, without tags or fusion partners.
UniProt Q8N6T7: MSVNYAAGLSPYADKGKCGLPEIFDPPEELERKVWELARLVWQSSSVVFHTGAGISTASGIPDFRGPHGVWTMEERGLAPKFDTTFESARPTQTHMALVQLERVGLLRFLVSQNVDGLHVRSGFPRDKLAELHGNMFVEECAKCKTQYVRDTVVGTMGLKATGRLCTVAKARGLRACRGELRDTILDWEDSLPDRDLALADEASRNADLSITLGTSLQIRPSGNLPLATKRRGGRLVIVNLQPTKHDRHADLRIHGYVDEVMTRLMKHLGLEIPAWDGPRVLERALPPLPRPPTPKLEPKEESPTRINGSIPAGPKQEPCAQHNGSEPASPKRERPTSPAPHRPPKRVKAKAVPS
UniProt P46379: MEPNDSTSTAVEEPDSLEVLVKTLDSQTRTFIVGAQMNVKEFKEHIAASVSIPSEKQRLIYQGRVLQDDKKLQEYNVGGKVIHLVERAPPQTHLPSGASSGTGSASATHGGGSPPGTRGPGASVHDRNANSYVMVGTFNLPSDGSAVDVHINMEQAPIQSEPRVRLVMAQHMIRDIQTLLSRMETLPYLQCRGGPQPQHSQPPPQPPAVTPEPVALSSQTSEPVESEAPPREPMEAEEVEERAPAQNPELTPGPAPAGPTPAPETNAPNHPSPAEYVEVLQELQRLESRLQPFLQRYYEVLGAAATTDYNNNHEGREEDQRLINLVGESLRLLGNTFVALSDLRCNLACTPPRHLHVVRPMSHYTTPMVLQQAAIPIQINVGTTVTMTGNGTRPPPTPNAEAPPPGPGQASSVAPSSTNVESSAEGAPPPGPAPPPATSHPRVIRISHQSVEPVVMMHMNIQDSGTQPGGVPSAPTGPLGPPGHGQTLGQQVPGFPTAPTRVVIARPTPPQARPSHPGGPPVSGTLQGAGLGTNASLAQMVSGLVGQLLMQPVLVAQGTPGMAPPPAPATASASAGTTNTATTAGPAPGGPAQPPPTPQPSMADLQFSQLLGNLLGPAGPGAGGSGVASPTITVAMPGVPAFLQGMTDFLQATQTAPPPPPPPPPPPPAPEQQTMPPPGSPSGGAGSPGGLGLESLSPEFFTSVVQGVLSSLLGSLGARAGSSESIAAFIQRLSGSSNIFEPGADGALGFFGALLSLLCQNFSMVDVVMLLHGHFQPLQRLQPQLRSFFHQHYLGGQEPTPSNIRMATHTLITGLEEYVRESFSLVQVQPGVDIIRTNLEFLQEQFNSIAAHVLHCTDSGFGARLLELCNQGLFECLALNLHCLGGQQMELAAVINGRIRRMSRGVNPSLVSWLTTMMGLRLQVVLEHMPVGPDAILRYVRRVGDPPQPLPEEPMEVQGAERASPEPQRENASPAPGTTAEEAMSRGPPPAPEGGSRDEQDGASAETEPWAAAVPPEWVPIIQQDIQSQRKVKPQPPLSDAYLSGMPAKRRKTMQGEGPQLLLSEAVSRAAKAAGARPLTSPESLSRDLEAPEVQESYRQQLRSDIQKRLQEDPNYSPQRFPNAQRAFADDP
UniProt P0CJ78: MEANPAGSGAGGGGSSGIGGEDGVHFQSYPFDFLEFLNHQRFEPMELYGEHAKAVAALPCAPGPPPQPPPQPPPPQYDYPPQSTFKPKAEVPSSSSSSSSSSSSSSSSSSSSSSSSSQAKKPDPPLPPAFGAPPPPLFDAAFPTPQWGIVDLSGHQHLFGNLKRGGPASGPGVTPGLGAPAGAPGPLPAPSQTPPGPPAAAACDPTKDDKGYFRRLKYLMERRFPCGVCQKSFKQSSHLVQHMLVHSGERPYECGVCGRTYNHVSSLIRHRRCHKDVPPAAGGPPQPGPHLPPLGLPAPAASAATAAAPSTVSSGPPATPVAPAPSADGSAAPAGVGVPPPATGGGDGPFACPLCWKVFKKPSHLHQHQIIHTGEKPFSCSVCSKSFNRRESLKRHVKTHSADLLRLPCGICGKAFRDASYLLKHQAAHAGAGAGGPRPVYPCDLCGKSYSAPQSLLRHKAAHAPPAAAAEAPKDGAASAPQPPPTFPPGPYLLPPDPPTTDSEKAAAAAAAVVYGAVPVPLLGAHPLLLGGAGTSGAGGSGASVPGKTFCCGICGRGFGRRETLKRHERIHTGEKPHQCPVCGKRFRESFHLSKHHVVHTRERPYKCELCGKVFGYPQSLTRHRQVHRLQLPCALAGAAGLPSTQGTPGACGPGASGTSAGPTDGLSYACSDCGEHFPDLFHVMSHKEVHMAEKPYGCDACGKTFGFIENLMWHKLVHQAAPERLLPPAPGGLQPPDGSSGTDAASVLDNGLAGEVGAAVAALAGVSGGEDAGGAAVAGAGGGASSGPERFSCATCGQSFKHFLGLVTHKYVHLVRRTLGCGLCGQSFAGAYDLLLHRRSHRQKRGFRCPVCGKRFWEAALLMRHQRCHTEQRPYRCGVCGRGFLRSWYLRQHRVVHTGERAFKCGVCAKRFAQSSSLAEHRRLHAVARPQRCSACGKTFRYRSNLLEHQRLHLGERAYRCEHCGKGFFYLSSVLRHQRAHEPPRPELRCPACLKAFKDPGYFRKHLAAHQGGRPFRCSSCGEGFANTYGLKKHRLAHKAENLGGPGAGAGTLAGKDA

Target: FLAG-HA-SIRT6 (human) (UniProt Q8N6T7)
Experiment: affinity purification with mass spectrometry; Tandem Affinity Purification of FLAG-HA-SIRT6 from transfected 293T cells; proteins of the complex identified

| binding | Molecule |
| --- | --- |
| binds | BAG6 (from UniProt P46379 1-1132) |
| binds | ZNF865 (from UniProt P0CJ78 1-1059) |
| binds | UHRF1 (Ubiquitin-like, containing PHD and RING Finger domains 1) (protein, UniProt Q96T88 1-793) MWIQVRTMDGRQTHTVDSLSRLTKVEELRRKIQELFHVEPGLQRLFYRGKQMEDGHTLFDYEVRLNDTIQLLVRQSLVLPHSTKERDSELSDTDSGCCLGQSESDKSSTHGEAAAETDSRPADEDMWDETELGLYKVNEYVDARDTNMGAWFEAQVVRVTRKAPSRDEPCSSTSRPALEEDVIYHVKYDDYPENGVVQMNSRDVRARARTIIKWQDLEVGQVVMLNYNPDNPKERGFWYDAEISRKRETRTARELYANVVLGDDSLNDCRIIFVDEVFKIERPGEGSPMVDNPMRRKSGPSCKHCKDDVNRLCRVCACHLCGGRQDPDKQLMCDECDMAFHIYCLDPPLSSVPSEDEWYCPECRNDASEVVLAGERLRESKKKAKMASATSSSQRDWGKGMACVGRTKECTIVPSNHYGPIPGIPVGTMWRFRVQVSESGVHRPHVAGIHGRSNDGAYSLVLAGGYEDDVDHGNFFTYTGSGGRDLSGNKRTAEQSCDQKLTNTNRALALNCFAPINDQEGAEAKDWRSGKPVRVVRNVKGGKNSKYAPAEGNRYDGIYKVVKYWPEKGKSGFLVWRYLLRRDDDEPGPWTKEGKDRIKKLGLTMQYPEGYLEALANREREKENSKREEEEQQEGGFASPRTGKGKWKRKSAGGGPSRAGSPRRTSKKTKVEPYSLTAQQSSLIREDKSNAKLWNEVLASLKDRPASGSPFQLFLSKVEETFQCICCQELVFRPITTVCQHNVCKDCLDRSFRAQVFSCPACRYDLGRSYAMQVNQPLQTVLNQLFPGYGNGR |
